# Measured values reported in PubChem BioAssay AID445 (National Center for Advancing Translational Sciences (NCATS), 2006).
# This is one part of the list. Further columns of the screen follow, without active or inactive calls. Compounds called inactive in the main read-out are mostly missing here. Potencies come from curve fits of mixed quality, noted in brackets.
# Assay: IkB Signaling
# Conditions: ABC-DLBCL IkBa-CBG/CBR dual luciferase ratio (green luciferase fused to IkBa over red control in OCI-Ly3 lymphoma cells), 4 h
# Method in brief: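 Curves were fitted separately to fusion (green), unfused (red) and ratio luminescence, then classed by r2, magnitude and activity. Cells: OCI-Ly3, 4 h compound plus doxycycline at 37C; 10 uM MG-132 defined full response.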
# [1] = measured here: control luc red channel unless noted
smiles,measurement,setting,value
COc1ccccc1CNC(=O)c1cc2sccc2n1Cc1ccc(Cl)cc1,AC50,[1],"20 µM [falling, single point]"
COc1ccc(NC(=O)CSc2ccc3nc(-c4ccccc4)cn3n2)c(OC)c1,AC50,[1],"31.6 µM [falling, partial curve]"
Cc1ccccc1NC(=O)CSc1nc2ccc(NC(=O)c3cccs3)cc2s1,AC50,[1],"12.6 µM [falling, partial curve]"
CSc1cccc(NC(=O)c2cccc(N3CCCS3(=O)=O)c2)c1,AC50,[1],"39.8 µM [falling, single point]"
CCOc1ccc(S(=O)(=O)Nc2cccc(-c3ccc(OCC)nn3)c2)cc1,AC50,[1],"31.6 µM [falling, single point]"
Cc1cccc(NC(=O)COC(=O)CCCC2=NS(=O)(=O)c3ccccc3N2)c1,AC50,[1],"0.316 µM [falling, full curve, poor fit]"
Cc1nc2c(C(=O)N3CCN(c4ccccn4)CC3)cnn2c(C)c1Cc1cccc(Cl)c1,AC50,[1],"12.6 µM [falling, partial curve]"
C=CCn1c(SCC(=O)Nc2cc(C)c(Cl)cc2OC)nnc1-c1ccco1,AC50,[1],"12.6 µM [falling, partial curve]"
COc1ccccc1N1CCN(C(=O)C2CCN(S(=O)(=O)Cc3ccccc3)CC2)CC1,AC50,[1],"3.16 µM [rising, partial curve]"
COc1ccc(CCNC(=O)CCCn2c(=O)c3cccn3c3ccccc32)cc1OC,AC50,[1],"20 µM [falling, partial curve]"
CCCc1[nH]nc2c1C(/C(C)=C/c1ccccc1)C(C#N)=C(N)O2 (stereo not drawn),AC50,[1],"15.8 µM [falling, partial curve]"
O=C(CSc1n[nH]c(-c2ccco2)n1)Nc1sc2c(c1C(=O)Nc1ccccc1)CCCC2,AC50,[1],"3.16 µM [falling, full curve]"
O=C(OCc1nnc(-c2ccccc2)o1)c1cc(S(=O)(=O)N2CCOCC2)c(Cl)cc1Cl,AC50,[1],"31.6 µM [falling, single point]"
CC1CN(c2nc3c(c(=O)n(Cc4ccc(Cl)cc4)c(=O)n3C)n2C)CC(C)O1 (stereo not drawn),AC50,[1],"20 µM [falling, single point]"
CCc1ccc(CNC(=O)CCCN2C(=O)CCn3nc(-c4cccn4C)cc32)cc1,AC50,[1],"12.6 µM [falling, partial curve]"
CC(C)CCN(Cc1ccco1)C(=O)c1cc2c(s1)-c1ccccc1OC2,AC50,[1],"25.1 µM [falling, single point]"
COc1cc(-c2nnc(SCCOc3ccc(Cl)cc3)o2)cc(OC)c1OC,AC50,[1],"5.01 µM [rising, full curve, poor fit]"
COc1ccccc1N1CCN(C(=O)c2cn(CC(C)C)c(=O)c3c2c2ccccc2n3C)CC1,AC50,[1],"12.6 µM [falling, partial curve]"
NC(=O)C1(N2CCCCC2)CCN(CC(=O)Nc2ccccc2-c2ccccc2)CC1,AC50,[1],"15.8 µM [falling, partial curve]"
CCCOc1ccc(NC(=O)CC2C(=O)N(c3cccc(OC)c3)C(=O)N2Cc2cccs2)cc1 (stereo not drawn),AC50,[1],"7.94 µM [falling, partial curve]"
Cc1nc2ccn(Cc3ccccc3)c(=O)c2cc1C(=O)N1CCN(c2ccccc2F)CC1,AC50,[1],"12.6 µM [falling, partial curve]"
Cc1cc(F)ccc1S(=O)(=O)Nc1ccc2oc3c(c2c1)CC(C)CC3 (stereo not drawn),AC50,[1],"31.6 µM [falling, partial curve]"
COc1cc(OC)cc(-c2cc3nc(C)c(CCC(=O)NCc4ccccc4)c(C)n3n2)c1,AC50,[1],"2.51 µM [falling, full curve]"
CCOc1ccccc1C(=O)NC1(C(F)(F)F)NC(=O)N(CCc2ccc(OC)c(OC)c2)C1=O (stereo not drawn),AC50,[1],"2.51 µM [rising, partial curve]"
CCc1nc2sc3c(c2c(=O)n1N)CCC3,AC50,[1],"7.94 µM [rising, partial curve]"
Cc1cc(C)c(S(=O)(=O)Nc2cccc(C(F)(F)F)c2)c(C)c1,AC50,[1],"39.8 µM [falling, partial curve]"
CCOC(=O)c1c(-c2ccc(C)o2)csc1NC(=O)CSc1nncs1,AC50,[1],"20 µM [falling, single point]"
CCOc1ccccc1CNC(=O)C1CCN(S(=O)(=O)c2ccc3[nH]c(=O)ccc3c2)CC1,AC50,[1],"25.1 µM [falling, partial curve]"
CCN(CC(=O)Nc1c(C(=O)OC)[nH]c2ccc(C)cc12)c1ccc2c(c1)OCO2,AC50,[1],"12.6 µM [falling, partial curve]"
COc1ccc(C2C(C#N)=C(N)N3C(=C2C#N)Sc2ccccc23)cc1 (stereo not drawn),AC50,[1],"12.6 µM [falling, partial curve]"
Clc1ccc(OCc2nn3c(C4CCCCC4)nnc3s2)cc1,AC50,[1],"25.1 µM [falling, partial curve]"
CCOC(=O)c1c(C)oc2ncnc(Nc3ccc(OC)cc3OC)c12,AC50,[1],"0.126 µM [rising, full curve, poor fit]"
COc1ccccc1NC(=O)CSC1=Nc2ccccc2C2=NC(CCC(=O)NCCc3ccccc3)C(=O)N12 (stereo not drawn),AC50,[1],"39.8 µM [falling, single point]"
O=C(Nc1nc2c(s1)CCCCCC2)Nc1ccc(F)cc1F,AC50,[1],"10 µM [falling, partial curve]"
Cc1ccc(C(=O)N2CCc3cc(CNS(=O)(=O)c4cccs4)ccc32)cc1,AC50,[1],"6.31 µM [falling, partial curve]"
O=C(COc1c(F)c(F)c(C(F)(F)F)c(F)c1F)Nc1ccc(N2CCOCC2)c(Cl)c1,AC50,[1],"10 µM [falling, partial curve]"
CCCCn1c(SCC(=O)Nc2cc(NC(=O)c3ccco3)ccc2C)nc2ccccc2c1=O,AC50,measured here: IkB-luc green channel,"7.94 µM [falling, full curve, poor fit]"
same,AC50,measured here: control luc red channel,"7.94 µM [falling, full curve]"
O=C(Nc1ccc(Oc2ccccc2)cc1)C1CCN(S(=O)(=O)c2ccc(Cl)cc2)CC1,AC50,[1],"31.6 µM [falling, partial curve]"
CCOC(=O)c1cc(S(=O)(=O)NCc2ccc(C)cc2)[nH]n1,AC50,[1],"0.794 µM [falling, partial curve]"
O=S(=O)(c1ccc(Cl)cc1)c1nc(-c2ccco2)oc1SCc1ccc(F)cc1,AC50,[1],"0.316 µM [falling, partial curve, poor fit]"
N#CC1=C2SCN(c3ccccc3)CN2C(=O)CC1c1c(Cl)cccc1Cl (stereo not drawn),AC50,[1],"31.6 µM [rising, partial curve] [measured here: IkB-luc green channel]"
COc1ccc(-n2c(=O)c3ccccc3n(CC(=O)Nc3ccccc3OC)c2=O)cc1,AC50,[1],"20 µM [falling, single point]"
Cc1ccc2c(CC(=O)Nc3c(C(=O)c4ccc(C)c(F)c4)oc4ccccc34)coc2c1,AC50,[1],"6.31 µM [rising, partial curve]"
CCOc1ccc(NC(=O)c2cnc3ccccn3c2=O)cc1,AC50,[1],"39.8 µM [rising, single point]"
CC(=O)c1ccc(NC(=O)c2cnn(-c3cccc(F)c3)c2-n2cccc2)cc1,AC50,[1],"39.8 µM [falling, partial curve]"
COc1ccc(NC(=O)CSc2nc(-c3ccc(F)cc3)[nH]c2-c2ccc(C)cc2)cc1OC,AC50,[1],"10 µM [falling, partial curve]"
Cc1ccc(CNC(=O)c2cc(C)nc3c2c(C)nn3-c2ccc(C)cc2)cc1,AC50,[1],"25.1 µM [falling, partial curve, poor fit]"
c1ccc2c(c1)nc(-c1ccncc1)n1nnnc21,AC50,[1],"15.8 µM [falling, partial curve]"
CC(=O)c1ccc(NC(=O)c2cc3sccc3n2Cc2ccc(F)cc2)cc1,AC50,[1],"3.98 µM [rising, single point]"
CCCCCOC(=O)CSc1ncnc2sc3c(c12)CCC(C)C3 (stereo not drawn),AC50,[1],"31.6 µM [falling, partial curve, poor fit]"
COCCCN1C(=O)c2[nH]nc(-c3ccccc3O)c2C1c1cccc(Cl)c1 (stereo not drawn),AC50,[1],"31.6 µM [falling, single point]"
Cc1ccc2nc3sc(C(=O)NCCCN(C)c4ccccc4)cc3cc2c1,AC50,[1],"10 µM [falling, partial curve]"
Clc1ccc(-c2nc(-c3ccccn3)no2)cc1Cl,AC50,[1],"2.51 µM [falling, full curve]"
COc1ccccc1CNC(=O)CCC1N=C2c3ccccc3N=C(SCc3ccc(C)cc3C)N2C1=O (stereo not drawn),AC50,[1],"12.6 µM [falling, partial curve]"
COc1ccc(NC(=O)CN(c2cc(C)cc(C)c2)S(=O)(=O)c2c(C)noc2C)cc1Cl,AC50,[1],"15.8 µM [falling, partial curve]"
CC(C)(C)C1CCc2nc(NC(=O)Cc3cn4ccsc4n3)sc2C1 (stereo not drawn),AC50,[1],"39.8 µM [falling, single point]"
O=C(NCCN1CCCCC1)c1ccc(I)cc1,AC50,[1],"15.8 µM [rising, partial curve]"
COc1ccc(-c2nc(SCC(=O)Nc3ccc4c(c3)OCCO4)c(-c3ccc(C)cc3)[nH]2)cc1OC,AC50,[1],"10 µM [falling, partial curve]"
COc1ccc(NC(=O)CSc2ccc3nc(-c4ccccc4)cn3n2)cc1OC,AC50,[1],"15.8 µM [rising, single point]"
Cc1ccccc1Nc1c(-c2ccc(N3CCOCC3)cc2)nc2ccccn12,AC50,[1],"25.1 µM [falling, partial curve]"
Cc1ccc(CNC(=O)CN2C(=O)COc3ccc(S(=O)(=O)Nc4ccccc4)cc32)cc1,AC50,[1],"25.1 µM [falling, partial curve]"
c1ccc(-c2cc(-c3nn4c(-c5ccco5)nnc4s3)c3ccccc3n2)cc1,AC50,[1],"2.51 µM [falling, full curve]"

# 3 entries from above, reformatted.
smiles	measurement	setting	value
CC(C)CCN(Cc1ccco1)C(=O)c1cc2c(s1)-c1ccccc1OC2	AC50	[1]	25.1 µM [falling, single point]
COc1cc(-c2nnc(SCCOc3ccc(Cl)cc3)o2)cc(OC)c1OC	AC50	[1]	5.01 µM [rising, full curve, poor fit]
COc1ccccc1N1CCN(C(=O)c2cn(CC(C)C)c(=O)c3c2c2ccccc2n3C)CC1	AC50	[1]	12.6 µM [falling, partial curve]
